Reference: patent US10829517B2, “Method for treating or/and preventing calcium deficiency-related diseases” (National Chung Hsing University, priority 2017, dated 2020)
At least one peptide structure holds a part that was inferred or is arguable (an end, a ring closure or a residue). Ends that are not written are not given here.

Columns and labels:
[1] = Binding to zinc ions by circular dichroism spectroscopy; conditions: various concentrations of zinc ions
[2] = Binding to calcium ions by circular dichroism spectroscopy; conditions: various concentrations of calcium ions
[3] = system: Akr1A1 gene-deficient male mice; experiment: Proinflammatory factor assay (IL-1β, IL-6, TNF-α ELISA) in serum; format: in vivo, mouse; conditions: 1.5 mg/kg/day for 12 weeks, mice at 20 weeks of age; compared with untreated second group
[4] = system: Akr1A1 gene-deficient male mice; experiment: Superoxide dismutase assay in serum; format: in vivo, mouse; conditions: 1.5 mg/kg/day for 12 weeks, mice at 20 weeks of age; compared with untreated second group
[5] = system: Akr1A1 gene-deficient male mice; experiment: Determination of bone metabolism indices (P1NP, CTX-1, osteocalcin, RANKL, osteoprotegerin); format: in vivo, mouse; conditions: 1.5 mg/kg/day for 12 weeks, 20 weeks of age, compared with untreated second group
[6] = system: Akr1A1 gene-deficient male mice; experiment: Thiobarbituric acid reactive substance (TBARS) assay, serum malondialdehyde; format: in vivo, mouse; conditions: 1.5 mg/kg/day for 12 weeks, mice at 20 weeks of age; compared with untreated second group
[7] = system: Akr1A1 gene-deficient male mice; experiment: Catalase assay in serum; format: in vivo, mouse; conditions: 1.5 mg/kg/day for 12 weeks, mice at 20 weeks of age; compared with untreated second group
[8] = system: Akr1A1 gene-deficient male mice; experiment: Reactive oxygen species/reactive nitrogen species (ROS/RNS) analysis in osteoporosis model mice; format: in vivo, mouse; conditions: 1.5 mg/kg/day for 12 weeks, mice at 20 weeks of age; compared with untreated second group
[9] = system: Caco-2 cells; experiment: Calcium uptake in Fluo-3-AM loaded Caco-2 cells (fluorescence intensity); format: cell-based, human; conditions: for percentage increase of calcium ions compared with the first group: 400 μM peptide
Protocol: The Caco-2 cell monolayer was cultured in a 10 cm2 culture dish containing DEME medium, and the cells were separated by TrypLE (Invitrogen, Carlsbad, Calif.) and washed several times with a phosphate-free KRH (Krebs Ringer Heps) solution. 5 μL of 1 mM Fluo-3-AM dye and 20% (w/v) thermally reversible hydrogel (Pluronic F-127, RF127) solution were added at 37° C. for about 30 minutes to obtain a Caco-2 cell suspension.
The Caco-2 cell suspension containing Fluo-3-AM dye was thoroughly rinsed in phosphate-free KRH solution and aliquoted, each aliquot containing 5×10^7 cells. After each aliquot was pelletized, the cells were resuspended in 240 μL of the phosphate-free KRH solution, and then transferred to a 96-well plate for use.

[10] = system: Akr1A1 gene-deficient male mice; experiment: Analysis of bone by computed tomography scan (Micro-CT); format: in vivo, mouse; conditions: 1.5 mg/kg/day for 12 weeks; compared with untreated second group; no significant difference from vitamin C group
[11] = Binding to magnesium ions by circular dichroism spectroscopy; conditions: various concentrations of magnesium ions
[12] = serum and femoral bone marrow effluent

TEVPAINTIASAEPTVH [SEQ ID No. 1]
ability to bind to zinc ions [1]: unable to bind
ability to bind to calcium ions [2]: can specifically bind
IL-1β level in serum [3]: significantly lower
IL-6 level in serum [3]: significantly lower
TNF-α level in serum [3]: significantly lower
superoxide dismutase content in serum [4]: higher
RANKL content in serum [5]: significantly decreased
osteoprotegerin in serum [5]: a large amount of osteoprotegerin is secreted
CTX-1 content [5, 12]: significantly lowered
P1NP level [5, 12]: significantly elevated
osteocalcin level [5, 12]: significantly elevated
malondialdehyde content in serum [6]: significantly lower
catalase content in serum [7]: higher
content of reactive oxygen species/reactive nitrogen species in femur (bone marrow effluent) [8]: obviously reduced
content of reactive oxygen species/reactive nitrogen species in serum (body) [8]: obviously reduced
percentage increase of calcium ions compared with the first group ([9]; 0.3 mM calcium ions (second group) vs 0 mM): 38.6%
percentage increase of calcium ions compared with the first group ([9]; 0.5 mM calcium ions (third group) vs 0 mM): 37.7%
percentage increase of calcium ions compared with the first group ([9]; 1.5 mM calcium ions (fourth group) vs 0 mM): 50.2%
percentage increase of calcium ions compared with the first group ([9]; 3 mM calcium ions (fifth group) vs 0 mM): 55.6%
percentage increase of calcium ions compared with the first group ([9]; 6 mM calcium ions (sixth group) vs 0 mM): 54.6%
calcium-absorption promotion ability ([9]; Example 17, FIG. 36, Caco-2 cells): have the ability to promote calcium absorption
bone density (Micro-CT) [10]: significantly better
bone structure (trabecular and cortical, Micro-CT) [10]: significantly better
ability to bind to magnesium ions [11]: unable to bind
